Assay results: patent US20200071361A1, “ENGINEERED ANTIMICROBIAL AMPHIPHILIC PEPTIDES AND METHODS OF USE” (priority 2017, published 2020)
At least one compound was matched to its structure with a doubt left.

System: Enterococcus faecium isolates (n = 104)
Assay: Broth microdilution MIC, clinical isolate panel
Format: cell-based
Conditions: Enterococcus faecium (n = 104)
Experimental: Comparator antibiotics were supplied by Micromyx, and stock solutions were prepared on the first day of testing using solvents recommended by CLSI (1). Stock solutions of all compounds were made at 40× the final testing concentration and stored at −80° C. prior to testing. Information regarding compound source, catalog and lot number, testing concentrations and drug diluent for the comparators and test agent are detailed below in Table 3.
The test organisms evaluated in this study consisted of clinical isolates from the Micromyx Repository and reference isolates from the American Type Culture Collection (ATCC; Manassas, Va.). The clinical isolates were obtained from USA hospitals. Upon initial receipt at Micromyx, the organisms were sub-cultured onto an appropriate agar medium. Following incubation, colonies were harvested from these plates and cell suspensions prepared and frozen at −80° C. with a cryoprotectant. […]
MIC values were determined using a broth microdilution procedure described by CLSI (1, 3). […]
Plates were stacked 3-4 high, covered with a lid on the top plate, placed in plastic bags, and incubated at 35° C. for 16 to 20 hrs. […] The MIC was read and recorded as the lowest concentration of drug that inhibited visible growth of the organism. […]

SMILES	% R (percent of isolates resistant, clinical breakpoints)	MIC range
C[C@H]1c2cccc(O)c2C(=O)C2=C(O)[C@]3(O)C(=O)C(C(N)=O)=C(O)[C@@H](N(C)C)[C@@H]3[C@@H](O)[C@@H]21 [Doxycycline]	25%	
C[C@H]1COc2c(N3CCN(C)CC3)c(F)cc3c(=O)c(C(=O)O)cn1c23 [Levofloxacin]		0.25->8
